Assay results reported in article PMC8446043.

Target: GST fusion construct encompassing the two WW domains of Hecw (636-834aa) (Drosophila)
Experiment: affinity purification with mass spectrometry; 2 uM GST-WW (Hecw 636-834) as bait incubated with 1 mg of S2 lysate for 2 h at 4 °C in YY buffer (50 mM Na-HEPES pH 7.5, 150 mM NaCl, 1 mM EDTA, 1 mM EGTA, 10% glycerol, 1% triton-100), four washes, LC-MS/MS; only the target purified

binding: binds
B1: Hrp48, endogenous in S2 cells (protein, UniProt P48809 1-421)
chain: MEEDERGKLFVGGLSWETTQENLSRYFCRFGDIIDCVVMKNNESGRSRGFGFVTFADPTNVNHVLQNGPHTLDGRTIDPKPCNPRTLQKPKKGGGYKVFLGGLPSNVTETDLRTFFNRYGKVTEVVIMYDQEKKKSRGFGFLSFEEESSVEHVTNERYINLNGKQVEIKKAEPRDGSGGQNSNNSTVGGAYGKLGNECSHWGPHHAPINMMQGQNGQMGGPPLNMPIGAPNMMPGYQGWGTSPQQQQYGYGNSGPGSYQGWGAPPGPQGPPPQWSNYAGPQQTQGYGGYDMYNSTSTGAPSGPSGGGSWNSWNMPPNSAGPTGAPGAGAGTATDMYSRAQAWATGGPSTTGPVGGMPRTGPGNSASKSGSEYDYGGYGSGYDYDYSNYVKQEGASNYGAGPRSAYGNDSSTQPPYATSQAV

No constants are given. Whether binding was seen depends on the method and setting. Binding seen in cells or lysates may run through a third protein. Here binding means that the protein was enriched with, or labelled near, the bait; the list need not be complete.
